5 molecules from paper PMC6232469 can be followed below.

Chains of the proteins cited; added tags and fusions are not shown.
UniProt P03431: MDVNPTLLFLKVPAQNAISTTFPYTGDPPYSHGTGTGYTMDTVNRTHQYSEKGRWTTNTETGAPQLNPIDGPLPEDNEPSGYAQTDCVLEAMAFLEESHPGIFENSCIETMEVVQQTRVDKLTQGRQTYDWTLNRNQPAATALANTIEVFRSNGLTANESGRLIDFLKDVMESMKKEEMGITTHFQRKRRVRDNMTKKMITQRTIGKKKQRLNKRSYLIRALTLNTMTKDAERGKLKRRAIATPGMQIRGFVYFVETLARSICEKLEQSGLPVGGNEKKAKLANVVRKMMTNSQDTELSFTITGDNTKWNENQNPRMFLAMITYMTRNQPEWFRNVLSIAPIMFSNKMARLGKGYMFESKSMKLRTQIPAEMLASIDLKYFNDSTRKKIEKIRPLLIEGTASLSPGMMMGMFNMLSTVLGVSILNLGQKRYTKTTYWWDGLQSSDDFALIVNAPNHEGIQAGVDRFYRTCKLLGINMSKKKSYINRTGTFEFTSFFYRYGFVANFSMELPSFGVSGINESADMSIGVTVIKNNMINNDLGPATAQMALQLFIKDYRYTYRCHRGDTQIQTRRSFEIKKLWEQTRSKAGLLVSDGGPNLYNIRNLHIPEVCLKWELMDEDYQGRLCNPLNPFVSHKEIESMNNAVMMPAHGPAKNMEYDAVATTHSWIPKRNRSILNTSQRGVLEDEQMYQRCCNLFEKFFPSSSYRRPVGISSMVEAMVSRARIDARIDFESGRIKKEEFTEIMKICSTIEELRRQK

The target of this experiment is Flag-PB1 (Flag-tagged polymerase basic protein 1 of A/Puerto Rico/8/1934 H1N1) (influenza A virus A/Puerto Rico/8/1934 (PR8, H1N1)) (UniProt P03431). Kind of experiment: affinity purification with mass spectrometry.

No constants are given. Whether binding was seen depends on the method and setting. Binding seen in cells or lysates may run through a third protein. A yes stands for co-enrichment or nearness to the bait. Other partners may have been found.

B1: HNRNPR (protein, UniProt O43390 1-633)
chain: MANQVNGNAVQLKEEEEPMDTSSVTHTEHYKTLIEAGLPQKVAERLDEIFQTGLVAYVDLDERAIDALREFNEEGALSVLQQFKESDLSHVQNKSAFLCGVMKTYRQREKQGSKVQESTKGPDEAKIKALLERTGYTLDVTTGQRKYGGPPPDSVYSGVQPGIGTEVFVGKIPRDLYEDELVPLFEKAGPIWDLRLMMDPLSGQNRGYAFITFCGKEAAQEAVKLCDSYEIRPGKHLGVCISVANNRLFVGSIPKNKTKENILEEFSKVTEGLVDVILYHQPDDKKKNRGFCFLEYEDHKSAAQARRRLMSGKVKVWGNVVTVEWADPVEEPDPEVMAKVKVLFVRNLATTVTEEILEKSFSEFGKLERVKKLKDYAFVHFEDRGAAVKAMDEMNGKEIEGEEIEIVLAKPPDKKRKERQAARQASRSTAYEDYYYHPPPRMPPPIRGRGRGGGRGGYGYPPDYYGYEDYYDDYYGYDYHDYRGGYEDPYYGYDDGYAVRGRGGGRGGRGAPPPPRGRGAPPPRGRAGYSQRGAPLGPPRGSRGGRGGPAQQQRGRGSRGSRGNRGGNVGGKRKADGYNQPDSKRRQTNNQQNWGSQPIAQQPLQQGGDYSGNYGYNNDNQEFYQDTYGQQWK
As for B1, the binding result is reported as “binds”.

B2: MCDRH (protein, UniProt K0J110 1-731)
chain: MPGKLLWGDIMELEDPWRSPRARRRRGKRVTEGSQGTIMTLMRNQKLEKNVLQMTWMLPRPKKSKMKEKLNGDTEEGFNRLSDEFSKSHKSRRKDLPNGDIDEYEKKSKRVSSLDTSTHKSSDNKLEETLTREQKEGAFSNFPISEETIKLLKGRGVTYLFPIQLKTFGHVYEGKDLIAQARTGTGKTFSFAIPLIERLQRNQETIKKSRSPKVLVLAPTRELANQVAKDFKDITRKLSVACFYGGTSYQSQINHIRNGIDILVGTPGRIKDHLQSGRLDLSKLRHVVLDEVDQMLDLGFAEQVEDIIHESYKTDSEDNPQTLLFSATCPQWVYKVAKKYMKSRYEQVALVGKMTQKAATPVEHLAIQCHWSQRPAVIGDVLQVYSGSEGRAIIFCETKKNVTEMAMNPHIKQNAQCLHGDIAQSQREITLKGFREGSFKVLVATNVAARGLDNPEVDLVIQSSPPQDVESYIHRSGRTGRAGRTGICICFYQPRERGQLRYVEQKAGITFKRVGVPSTMDLVKSKSMDAIRSLASVSYAAVSAQRLIEEKGAVDALAAALAHISGASSFEPRSLITSDKGFVTMTLESLEEYRMSAVAWKELNRKLSSNAVSQITRMCLLKGIWGVCFDVPTTESERLQAEWHDSDWILSVPAKLPEIEEYYDGNTSSNSRQRSGWSSGRSGRSGRSGGRSGGRSGRQSRQGSRSGSRQDGRRRSGNRNRSRSGGPQTEF
For the molecule B2, the binding result was “binds”.

B3: MIF (protein, UniProt P14174 1-115)
chain: MPMFIVNTNVPRASVPDGFLSELTQQLAQATGKPPQYIAVHVVPDQLMAFGGSSEPCALCSLHSIGKIGGAQNRSYSKLLCGLLAERLRISPDRVYINYYDMNAANVGWNNSTFA
In the case of B3, the binding entry is reported as “binds”.

B4: FKBP4 (protein, UniProt Q02790 1-459)
chain: MTAEEMKATESGAQSAPLPMEGVDISPKQDEGVLKVIKREGTGTEMPMIGDRVFVHYTGWLLDGTKFDSSLDRKDKFSFDLGKGEVIKAWDIAIATMKVGEVCHITCKPEYAYGSAGSPPKIPPNATLVFEVELFEFKGEDLTEEEDGGIIRRIQTRGEGYAKPNEGAIVEVALEGYYKDKLFDQRELRFEIGEGENLDLPYGLERAIQRMEKGEHSIVYLKPSYAFGSVGKEKFQIPPNAELKYELHLKSFEKAKESWEMNSEEKLEQSTIVKERGTVYFKEGKYKQALLQYKKIVSWLEYESSFSNEEAQKAQALRLASHLNLAMCHLKLQAFSAAIESCNKALELDSNNEKGLFRRGEAHLAVNDFELARADFQKVLQLYPNNKAAKTQLAVCQQRIRRQLAREKKLYANMFERLAEEENKAKAEASSGDHPTDTEMKEEQKSNTAGSQSQVETEA
For the molecule B4, the binding entry was “binds”.

B5: KHSRP (protein, UniProt Q92945 1-711)
chain: MSDYSTGGPPPGPPPPAGGGGGAGGAGGGPPPGPPGAGDRGGGGPGGGGPGGGSAGGPSQPPGGGGPGIRKDAFADAVQRARQIAAKIGGDAATTVNNSTPDFGFGGQKRQLEDGDQPESKKLASQGDSISSQLGPIHPPPRTSMTEEYRVPDGMVGLIIGRGGEQINKIQQDSGCKVQISPDSGGLPERSVSLTGAPESVQKAKMMLDDIVSRGRGGPPGQFHDNANGGQNGTVQEIMIPAGKAGLVIGKGGETIKQLQERAGVKMILIQDGSQNTNVDKPLRIIGDPYKVQQACEMVMDILRERDQGGFGDRNEYGSRIGGGIDVPVPRHSVGVVIGRSGEMIKKIQNDAGVRIQFKQDDGTGPEKIAHIMGPPDRCEHAARIINDLLQSLRSGPPGPPGGPGMPPGGRGRGRGQGNWGPPGGEMTFSIPTHKCGLVIGRGGENVKAINQQTGAFVEISRQLPPNGDPNFKLFIIRGSPQQIDHAKQLIEEKIEGPLCPVGPGPGGPGPAGPMGPFNPGPFNQGPPGAPPHAGGPPPHQYPPQGWGNTYPQWQPPAPHDPSKAAAAAADPNAAWAAYYSHYYQQPPGPVPGPAPAPAAPPAQGEPPQPPPTGQSDYTKAWEEYYKKIGQQPQQPGAPPQQDYTKAWEEYYKKQAQVATGGGPGAPPGSQPDYSAAWAEYYRQQAAYYGQTPGPGGPQPPPTQQGQQQAQ
As for B5, the binding result is “binds”.
